Assay results: article PMC8892744
These are yes or no findings as the source states them, for the method shown. Binding seen in cells or lysates may run through a third protein. Some entries that bind do so weakly or less than the wild type.

Amino acid sequences for entries named in this document (tags omitted). A change or cut given only in a name is not applied to a line headed by its entry. Residues count along the entry.
UniProt Q02413, residues 50-1049: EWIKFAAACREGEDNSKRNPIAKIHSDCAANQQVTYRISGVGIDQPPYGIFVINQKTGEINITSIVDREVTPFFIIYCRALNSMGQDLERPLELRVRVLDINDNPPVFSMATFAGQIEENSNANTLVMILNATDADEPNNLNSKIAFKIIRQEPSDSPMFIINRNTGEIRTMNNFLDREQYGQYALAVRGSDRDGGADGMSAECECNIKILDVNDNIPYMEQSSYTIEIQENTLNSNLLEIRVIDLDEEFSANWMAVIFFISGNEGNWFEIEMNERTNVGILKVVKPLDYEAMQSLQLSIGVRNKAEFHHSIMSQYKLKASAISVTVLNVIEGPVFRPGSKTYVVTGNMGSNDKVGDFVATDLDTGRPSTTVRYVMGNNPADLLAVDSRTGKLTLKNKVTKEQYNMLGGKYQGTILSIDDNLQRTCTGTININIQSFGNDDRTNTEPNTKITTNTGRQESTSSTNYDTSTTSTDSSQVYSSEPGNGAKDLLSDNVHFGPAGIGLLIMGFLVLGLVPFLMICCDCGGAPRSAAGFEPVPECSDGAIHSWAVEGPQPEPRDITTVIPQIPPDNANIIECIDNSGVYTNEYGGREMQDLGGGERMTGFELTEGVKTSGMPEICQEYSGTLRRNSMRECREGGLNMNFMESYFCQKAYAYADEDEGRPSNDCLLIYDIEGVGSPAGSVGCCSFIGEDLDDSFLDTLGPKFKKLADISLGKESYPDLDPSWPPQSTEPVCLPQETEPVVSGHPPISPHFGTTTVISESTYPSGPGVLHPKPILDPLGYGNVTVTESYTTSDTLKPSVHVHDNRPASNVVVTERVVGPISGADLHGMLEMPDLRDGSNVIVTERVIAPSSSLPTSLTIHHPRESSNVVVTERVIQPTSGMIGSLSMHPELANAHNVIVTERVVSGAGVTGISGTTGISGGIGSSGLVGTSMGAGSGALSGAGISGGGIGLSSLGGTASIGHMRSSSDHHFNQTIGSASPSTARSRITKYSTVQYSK
UniProt Q96KS9: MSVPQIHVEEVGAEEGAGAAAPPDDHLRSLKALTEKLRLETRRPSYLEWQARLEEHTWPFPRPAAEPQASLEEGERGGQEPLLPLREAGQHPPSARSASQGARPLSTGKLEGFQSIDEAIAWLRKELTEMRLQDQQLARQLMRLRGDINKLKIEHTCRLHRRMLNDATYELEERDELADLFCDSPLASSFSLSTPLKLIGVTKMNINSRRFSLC
UniProt Q99558: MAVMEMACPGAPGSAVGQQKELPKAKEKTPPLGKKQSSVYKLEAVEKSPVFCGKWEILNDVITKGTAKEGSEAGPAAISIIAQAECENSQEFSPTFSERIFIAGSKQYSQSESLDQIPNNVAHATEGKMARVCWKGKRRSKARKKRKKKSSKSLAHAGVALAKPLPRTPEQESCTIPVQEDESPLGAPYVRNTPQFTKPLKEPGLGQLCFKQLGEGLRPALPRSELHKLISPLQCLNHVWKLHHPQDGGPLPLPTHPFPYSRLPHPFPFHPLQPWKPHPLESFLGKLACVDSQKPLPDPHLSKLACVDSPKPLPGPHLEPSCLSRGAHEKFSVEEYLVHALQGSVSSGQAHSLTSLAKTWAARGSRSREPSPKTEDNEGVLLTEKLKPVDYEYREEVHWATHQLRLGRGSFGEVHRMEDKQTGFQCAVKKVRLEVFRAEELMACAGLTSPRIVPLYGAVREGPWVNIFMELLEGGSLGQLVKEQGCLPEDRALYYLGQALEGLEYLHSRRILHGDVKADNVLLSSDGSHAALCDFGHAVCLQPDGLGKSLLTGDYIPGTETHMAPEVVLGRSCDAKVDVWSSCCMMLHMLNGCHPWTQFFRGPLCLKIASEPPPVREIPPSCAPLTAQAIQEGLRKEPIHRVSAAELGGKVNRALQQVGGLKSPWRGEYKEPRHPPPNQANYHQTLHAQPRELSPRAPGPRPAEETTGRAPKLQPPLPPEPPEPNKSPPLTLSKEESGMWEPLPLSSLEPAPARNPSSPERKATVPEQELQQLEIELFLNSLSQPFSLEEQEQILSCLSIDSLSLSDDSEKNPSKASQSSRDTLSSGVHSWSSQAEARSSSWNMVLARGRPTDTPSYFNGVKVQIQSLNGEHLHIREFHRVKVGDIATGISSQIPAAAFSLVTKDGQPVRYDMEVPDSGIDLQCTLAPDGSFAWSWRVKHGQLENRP
UniProt Q9UNE7: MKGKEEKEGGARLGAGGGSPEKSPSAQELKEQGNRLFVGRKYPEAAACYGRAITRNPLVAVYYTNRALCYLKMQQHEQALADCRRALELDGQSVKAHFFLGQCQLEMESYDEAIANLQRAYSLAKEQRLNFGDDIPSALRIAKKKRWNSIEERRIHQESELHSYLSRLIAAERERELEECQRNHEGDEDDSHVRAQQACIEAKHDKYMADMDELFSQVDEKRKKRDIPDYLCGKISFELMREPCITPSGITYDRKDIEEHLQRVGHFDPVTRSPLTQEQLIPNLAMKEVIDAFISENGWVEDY

Key:
[1] = target: desmoglein-1 (DSG1) (human (endogenous in K562S and K562R)) (UniProt Q02413); experiment: co-IP; endogenous proteins in K562R cell lysates; lysis buffer 20 mM Tris-HCl pH 8.0, 150 mM NaCl, 1% Triton X-100, 10% glycerol, 2 mM EDTA; Protein G Sepharose beads, 4 °C; immunoblot
[2] = target: desmoglein-1 (DSG1) (human (endogenous in K562S and K562R)) (UniProt Q02413); experiment: co-IP; endogenous DSG1, Erbin, NIK, TRAF3, CHIP and c-cbl in K562S and K562R cell lysates; also K562R cells treated with 2 μg/ml anti-FAM167A neutralizing antibody or isotype control for 3 h; lysis buffer 20 mM Tris-HCl pH 8.0, 150 mM NaCl, 1% Triton X-100, 10% glycerol, 2 mM EDTA; Protein G Sepharose beads, 4 °C; immunoblot

Substance | binding [1] | binding [2]
FAM167A (endogenous, K562R cells) (from UniProt Q96KS9 1-214) | binds | –
NF-κB-inducing kinase (NIK) (from UniProt Q99558 1-947) (enzyme) | – | binds
CHIP (from UniProt Q9UNE7 1-303) (enzyme) | – | no binding
